Experimental data taken from paper PMC6559791.
These are yes or no findings as the source states them, for the method shown. Binding seen in cells or lysates may run through a third protein. Binding calls can cover weak binding; strength is not graded here. Where a sequence is shown, tags or fusion partners need not be part of it.

Biological target: DmBld10-GFP-FLAG-6xHis (Drosophila melanogaster)
Experiment: co-IP; S. pombe cell extracts (20 mM Hepes-NaOH pH 7.5, 50 mM KOAc, 200 mM NaCl, 1 mM EDTA, 0.2% Triton X-100); GFP/YFP-tagged protein precipitated with rabbit anti-GFP on Dynabeads Protein A, 3 h at 4°C; western blot

- binding: binds
B1: Pcp1-HA (protein, UniProt Q92351 1-1208)
chain: MSERDFNTQSPKFKDENANSVISQSDFLGKSLKNNNDDYSDFRGSYLNDKSSFQTPLRNGSYQPKGSLEFTPLLQSSNKNSDKYNGSLGDKGSFDPNSYGLSAISKQATQEALSISQGNDSYDVSKLTDLSKNSEIDHTDGELPANAALTLREQEKVLEKVSRENFGLRIKIVCLEKRLESMAPEQIKEAVKDNVELHAERANLQLQLKRTESLLQKSEDKNFKLEEKVDYLSKVNDVEQSQNVKVFTERIRFLENALEKVQREKDSLSTEMEEDKSNKEVDYEYEIRQLQNRLDELSEELDVAQDLLTEKEDEIATLKRQIEEKENSSSAFENEENSSYVHLQEDYAILQAKCDEFADRIQVLTADLEKEKENQIMHESEASIGLTDSMQVHTLQEQLHKANEEIEFLHDQISRMNEEGKNFEDIMLQFRSLEEERDVLESKLQTLEDDNNSLRLMTSSLGNQIESLRTQNREIDEEKNHLRLLASKNSDKALAETNIRLQEVTKELETLRMKNSNDLNEIHDLREENEGLTLKIDSITKEKDRLINELEQRIKSYEVNVSELNGTIDEYRNKLKDKEETYNEVMNAFQYKDNDLRRFHESINKLQDREKELTSNLEKKNLVISSLRETVAMLEKERESIKKYLSGNAKDLDNTNLMEILNDKISVLQRQLTDVKDELDVSEEEREEAIVAGQKLSASFELMSNEKQALELKYSSLKNELINAQNLLDRREEELSELSKKLFEERKIRSGSNDDIEKNKEINVLNSELADKLAQIRHLESDKMELDKLVHHLNRGIEEANIEENAVKKRLCLLMGCDYSSVSILQIVSQIEHFVNQQIQTIRSLKQELRHDFVQFSGKKEQELSRSFEKFGLGTETKHDILAQRNRNVSEKMNDLENAAQKFFSSPDRKNGYLYPSEHTSKIEYLEKTIEDLKLALQDELKNRNLLMDDISSYNKQTTKLQEKIKWLERERSILIDELESYRSNQFNYQNNLVQDKNELEERLKEIQKELEVYNNHFMKQAELMTSNVTDESQLMLKTLREALQSKTNNIDHLSTILERNRKEYKSLLDDYNQLRARYKNLQSNTPQSTQSGQYESEIKGLSKLTKYLQSKCRREHSLRLDLAFSKKFILMQLTGYETCNKINLRMLQKIGISPDPDLSKKHIKLKSLIIVVCSIERMKRMKNEWLKQAQLKQSLQRAAAKAKTANY
